# Experimental data from PubChem BioAssay AID504834 (National Center for Advancing Translational Sciences (NCATS), 2011).
# The campaign covered roughly 320,000 compounds. About 22,000 (6.9%) were called active. Inconclusive means that the source gave no clear call. Such entries were picked first, then a sample of the others. Calls follow the shape of the dose curve; as a rule, active = well fitted inhibition curve with a large enough effect; inconclusive = small, poorly fitted or top-dose-only effect, or another doubt; inactive = no such curve, though single readings can be large or run the other way. Where the call is inconclusive, the potency comes from a doubtful curve fit.
# Assay: Primary qHTS for delayed death inhibitors of the malarial parasite plastid, 96 hour incubation
# Details: P. falciparum luciferase reporter growth; series mostly up to 28.7 µM
# Method in brief: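 Parasite growth measured via integrated firefly luciferase reporter in P. falciparum. Infected erythrocytes at 2% hematocrit, 0.05% parasitemia final were treated 96 hours at 37 C under 5% CO2, and luminescence was read.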
# % is scaled to controls: 0 for no effect and ±100 for the full control effect; potency is read from the fitted curve at half-maximal effect.
SMILES,Potency,"activity change, negative = inhibition"
COc1ccc(Br)cc1CSC(=N)N,inactive,
CCOC(=O)N1CCN(C(=S)NC(=O)c2ccnn2C)CC1,"inconclusive: 13.1 µM [inhibitor, partial curve]",
O=C(Cc1cccs1)N(Cc1cccs1)C1(C(=O)NC2CCCC2)CCCCC1,"inconclusive: 13.1 µM [inhibitor, partial curve, poor fit]",
CCOC(=O)Nc1ccc2c(c1)N(C(=O)CN1CCN(C)CC1)c1ccccc1CC2,"inconclusive: 11.7 µM [inhibitor, partial curve, poor fit]",
Cc1ccc(OCC(=O)Nc2sc3c(c2C#N)CC(C)(C)NC3(C)C)cc1,inactive,
COc1ccc(OC)c(-n2c(-c3cccc(C)c3)n[nH]c2=S)c1,"inconclusive: 18.5 µM [inhibitor, single point]",
COc1ccccc1CCNC(=O)C(=O)NCC1OCCN1S(=O)(=O)c1ccccc1 (stereo unspecified),inactive,
O=P(COc1ccccc1)(c1ccccc1)c1ccccc1,"inconclusive: 5.22 µM [inhibitor, single point]",
COc1ccccc1-c1cc(C(=O)N/N=C\c2cnn(C)c2C)c2ccccc2n1,"inconclusive: 9.28 µM [inhibitor, partial curve, poor fit]",
O=C(CCN1C(=O)C2C3CCC(C3)C2C1=O)Nc1cccc(Cl)c1 (stereo unspecified),inactive,
C=C(C)c1cccc(C(C)(C)NC(=O)Nc2ccc(OC)nc2)c1,"inconclusive: 10.4 µM [inhibitor, single point]",
CCCCCCCCNC(=O)c1cccnc1SCC(=O)Nc1ccccc1OC,inactive,
Cc1noc(-c2ccc(C(F)(F)F)cc2)c1NC(=O)Nc1ccc(Cl)cc1,active: 2.62 µM,
COC(=O)CSc1nnc(NC(=O)/C=C\c2ccc3c(c2)OCO3)s1,inactive,
CC(C)CN(CC(C)C)S(=O)(=O)c1cc([N+](=O)[O-])ccc1N1CCCCCC1,"inconclusive: 4.65 µM [inhibitor, partial curve]",
CSc1ccc(C(=O)C2CCCN(C(=O)c3ccc4c(c3)OCO4)C2)cc1 (stereo unspecified),inactive,
COc1ccc(-c2cc3c(nn2)-c2ccccc2C3=O)cc1,active: 1.85 µM,
CC(=O)N1CC(=O)Nc2ccc(Br)cc2C1c1ccc(F)cc1 (stereo unspecified),"inconclusive: 18.5 µM [inhibitor, single point]",
COC(=O)C(C(=O)OC)C(CC(=O)c1ccc(C)cc1)c1cc(OC)c(OC)c(OC)c1 (stereo unspecified),"inconclusive: 0.165 µM [inhibitor, full curve, poor fit]",
CC1(C)C2CC=C(/C=N/NC(=O)c3ccccc3O)C1C2 (stereo unspecified),inactive,
COc1ccccc1N(CC(O)Cn1ccnc1C)S(=O)(=O)c1ccc(C)cc1 (stereo unspecified),"inconclusive: 0.0029 µM [inhibitor, full curve, poor fit]",
CC(=O)Oc1ccccc1C(=O)O,inactive,
COc1ccc(/C=N\NC(=O)c2sccc2C)cc1Cn1nc(C)cc1C,"inconclusive: 10.4 µM [inhibitor, single point]",
CC1(C)CC(=O)c2c(Cc3ccccc3)n[nH]c2C1,inactive,

# Reformatted: three of the compounds above
SMILES | Potency | activity change, negative = inhibition
COc1ccccc1-c1cc(C(=O)N/N=C\c2cnn(C)c2C)c2ccccc2n1 | inconclusive: 9.28 µM [inhibitor, partial curve, poor fit] | 
CSc1ccc(C(=O)C2CCCN(C(=O)c3ccc4c(c3)OCO4)C2)cc1 (stereo unspecified) | inactive | 
CC(=O)N1CC(=O)Nc2ccc(Br)cc2C1c1ccc(F)cc1 (stereo unspecified) | inconclusive: 18.5 µM [inhibitor, single point] | 

# (continued)

SMILES,Potency,"activity change, negative = inhibition"
CC(C)CN(C(=O)COC(=O)CNC(=O)c1ccccc1F)C1CCS(=O)(=O)C1 (stereo unspecified),"inconclusive: 2.33 µM [inhibitor, single point]",
OCCNc1c2c(nc3ccccc13)CCCC2,inactive,
CCOc1ccc(-c2nc(CCl)cs2)cc1,inactive,
COc1ccccc1NC(=O)CSC1=NC(=O)C(NC(C)=O)C(=O)N1 (stereo unspecified),active: 0.828 µM,
CC1(C#N)c2ccccc2C(Br)=CN1C(=O)c1ccccc1 (stereo unspecified),"inconclusive: 0.465 µM [inhibitor, partial curve, poor fit]",
Cc1ccc(NC(=O)c2cccs2)cc1[N+](=O)[O-],"inconclusive: 10.4 µM [inhibitor, single point]",
CCOC(=O)C(c1ccccc1)C(Nc1ccccc1)c1ccccn1 (stereo unspecified),"inconclusive: 18.5 µM [inhibitor, single point]",
O=C(Nc1ccccc1C(=O)Nc1ccccc1)c1ccccc1F,"inconclusive: 8.28 µM [inhibitor, partial curve]",
CCOC(=O)[C@@H]1[C@H]2COc3ccccc3[C@H]2N2C(=O)N(c3ccccc3)C(=O)[C@]12C,"inconclusive: 11.7 µM [inhibitor, partial curve, poor fit]",
COc1ccc(CCC(=O)NCCc2cn3c(C)csc3n2)cc1,"inconclusive: 9.28 µM [inhibitor, partial curve, poor fit]",
CCOC(=O)C1=C(c2ccccc2)NC(=O)NC1c1ccc(O)c(Cl)c1 (stereo unspecified),"inconclusive: 14.7 µM [inhibitor, single point]",
COc1cc(OC)c(C2N(c3ccc(Cl)c(Cl)c3)C(=O)C3CCCN32)cc1OC (stereo unspecified),"inconclusive: 18.5 µM [inhibitor, single point]",
C=CCC(=O)N1CCCC(C(=O)c2ccc(Cl)cc2)C1 (stereo unspecified),"inconclusive: 11.7 µM [inhibitor, single point]",
CCCCn1c2nc3ccccc3nc2c2c(=O)n(CCC)cnc21,"inconclusive: 0.117 µM [inhibitor, full curve, poor fit]",
CC(C)c1ccc(OCC(=O)NNC(=S)NC(=O)C2CC2)cc1,"inconclusive: 5.22 µM [inhibitor, single point]",
CC/C(CC(c1ccccc1)c1c(O)c2ccccc2oc1=O)=N\NC(N)=S (stereo unspecified),"inconclusive: 18.5 µM [inhibitor, single point]",
Cc1ccc(N(C)C(=O)c2cnn(-c3ccccc3)c2C)c(C)c1,active: 5.22 µM,
CCC1CCCCN1CCCNC(=O)c1ccc2c(c1)N(Cc1c(F)cccc1Cl)C(=O)CS2 (stereo unspecified),"inconclusive: 0.522 µM [inhibitor, full curve]",
O=C(O)c1ccc2c(c1)C(=O)N(Cc1ccc3c(c1)OCO3)C2=O,"inconclusive: 18.5 µM [inhibitor, single point]",
COc1cccc2[nH]c3c(N4CCC(C)CC4)ncnc3c12,"inconclusive: 10.4 µM [inhibitor, single point]",
CC1(C)C2CCC1(C)C(NC(=O)/C=C/c1ccccc1)C2 (stereo unspecified),inactive,
CCOc1ccc(-n2nnc3c(=O)n(CC(=O)N4CCCc5ccccc54)cnc32)cc1,"inconclusive: 10.4 µM [inhibitor, partial curve, poor fit]",
Cc1ccc(-c2csc3nc(C)n(N)c(=O)c23)cc1,inactive,
O=C(CCNC(=O)c1ccccc1Cl)Nc1nc(-c2ccc3ccccc3c2)cs1,"inconclusive: 2.08 µM [inhibitor, full curve, poor fit]",

SMILES,Potency,"activity change, negative = inhibition"
CCOC(=O)c1nn(-c2ccc3c(c2)CCN3C(C)=O)cc1O,inactive,
COc1cc(NC(=O)c2cnn3c(C(F)F)cc(C4CC4)nc23)c(OC)cc1Cl,,inactive: -10.9% [at 5.75 µM]
COc1ccc(CNC(=O)C(=O)c2cn(CC(=O)N3CCCC3)c3ccccc23)cc1,"inconclusive: 18.5 µM [inhibitor, single point]",
Cc1onc(-c2ccccc2Cl)c1C(=O)NCc1ccc(F)cc1,"inconclusive: 3.7 µM [inhibitor, partial curve, poor fit]",
CC(Oc1ccc(Cl)cc1Cl)c1nc(-c2ccc(NC(=O)c3ccncc3)cc2)no1 (stereo unspecified),active: 9.28 µM,
C[n+]1ccccc1/C=N\O,"inconclusive: 1.61 µM [inhibitor, full curve, poor fit]",
CC1=CCC2C(=O)N(c3ccccc3OC(=O)c3ccccc3F)C(=O)C2C1 (stereo unspecified),inactive,
O=[N+]([O-])c1cccnc1Oc1cccnc1,"inconclusive: 9.28 µM [inhibitor, partial curve, poor fit]",
CCN(CC)c1ccc(/C=N/NC(=O)CN2CCCc3ccccc32)cc1,inactive,
CCCC(=O)NC(=S)N1CCN(c2ccc([N+](=O)[O-])cc2)CC1,"inconclusive: 1.65 µM [inhibitor, partial curve, poor fit]",
COc1ccc2c(=O)c3c(=O)n(CCc4ccccc4)c(C(C)C)nc3oc2c1,active: 5.22 µM,
CCc1cccc(NC(=O)c2ccc(NS(=O)(=O)c3c(C)noc3C)cc2)c1,inactive,
O=C(O)C(Cc1ccccc1)N1C(=O)/C(=C/c2cccnc2)SC1=S (stereo unspecified),"inconclusive: 1.47 µM [inhibitor, full curve, poor fit]",
Cc1ccc(/C=N/NC(=O)CN2C(=O)CSc3ccccc32)o1,inactive,
Cc1ccc(N2C(=N)SCC2=O)cc1Cl,"inconclusive: 14.7 µM [inhibitor, single point]",
Cc1cc2oc(=O)cc(CN3CCCCC3C)c2cc1Cl (stereo unspecified),inactive,
Cc1ccccc1N=C1NC(=O)/C(=C/c2cccnc2)S1,"inconclusive: 1.47 µM [inhibitor, partial curve]",
COc1ccccc1CN(Cc1nc2ccccc2c(=O)[nH]1)C(=O)Nc1cccc(C)c1,active: 9.28 µM,
CCOc1ccc(CNC(=O)C(C)n2ccc3cc(S(=O)(=O)N4CCCC4)ccc32)cc1 (stereo unspecified),"inconclusive: 11.7 µM [inhibitor, partial curve]",
CN1C(N)=NC(=O)/C1=C/c1ccccc1F,"inconclusive: 0.208 µM [inhibitor, full curve, poor fit]",
COc1ccc(O[C@H]2C=C[C@@H](c3ccccc3)O[C@@H]2COC(=O)CC/C(C)=N/OC[C@@H](O)COCc2ccco2)cc1,"inconclusive: 18.5 µM [inhibitor, single point]",
Cc1ccccc1N1CCN(Cc2c(C#N)c3ccccc3n2C)CC1,"inconclusive: 11.7 µM [inhibitor, single point]",
Cc1cc(C)n2nc3nc(N4CCCC4)nc(-c4ccccc4)c3c2n1,"inconclusive: 0.0928 µM [inhibitor, full curve, poor fit]",
